The target of test [1] is mouse pancreatic elastase (mouse). The experiment in a line: BLI, biotinylated NbE201 on streptavidin sensor, protease in solution. For orientation: In BLI a coated tip is dipped into the sample, and binding shifts an interference pattern.
For test [2] the target is unchanged. Nature of the test: BLI, biotinylated NbE201 on streptavidin sensors, protease in solution.

In patent US20260209387A1, “SINGLE-DOMAIN ANTIBODY FOR INHIBITION OF NEUTROPHIL ELASTASE ACTIVITY” (UNIVERSITE DE LIEGE, priority 2023, published 2026) one finds binding data, which are given here for one molecule.

These are yes or no findings as the source states them, for the method shown.

B1: biotinylated NbE201 (VHH)
VHH: QVQLQESGGGLVQAGGSLRLSCVVPGRTISLYRMGWFRQAPGKEREFVAGINWSGDMTDYVDSVKGRFTISRDNAKNTVYLEMNSLKPEDTAIYYCTADPKLLPLADSSYGYWGQGTQVTVSS
modifications: C-terminal Cys biotinylated with EZ-Link Maleimide-PEG2-Biotin
notes: Form immobilised on streptavidin sensors in all BLI experiments; It was produced in the pHEN25 vector and biotinylated site-specifically on its C-terminal Cys; also called NbE201_Cter Biot; biotinylated ISVD NbE201
B1: the binding entry in test [1] and in test [2] was “no binding (tested: 50 nM)” each time.
